Structures can show the parent of a compound that is named as a salt. Some of the results follow. Most values come without repeats; read them as rough.
test system: M229R (matched melanoma line resistant to BRAF inhibitors); assay: reduction in cell viability relative to untreated/vehicle; higher = more growth inhibition; conditions: 200 nM; 72 h

SMILES | reduction in cell viability [%]
CN(N=O)C(=O)N[C@@H](C=O)[C@@H](O)[C@H](O)[C@H](O)CO [Streptozocin] | < 0
C=CC(=O)Nc1cccc(Oc2nc(Nc3ccc(N4CCN(C)CC4)cc3OC)ncc2Cl)c1 | < 0
COc1c(C)c2c(c(O)c1C/C=C(\C)CCC(=O)OCCN1CCOCC1)C(=O)OC2 [Mycophenolate mofetil] | < 0
CN1C(=O)C[C@@H](C(=O)N[C@@H](Cc2c[nH]cn2)C(=O)N2CCC[C@H]2C(N)=O)NC1=O [Taltirelin] | < 0
CCC(C)N(C)C(=O)c1cc2ccccc2c(-c2ccccc2Cl)n1 (stereo not given) | < 0
COc1cccc(-c2ccc(NC(=O)C3=C(C(=O)O)CCC3)c(F)c2)c1 [Vidofludimus] | 5.25
CCOCC(O)COc1ccc(NC(=O)CC[S+](C)C)cc1 (stereo not given) [Suplatast tosilate] | < 0
CCN(C(=O)c1c(O)c2c(Cl)cccc2n(C)c1=O)c1ccccc1 [Laquinimod] | < 0
CC[C@H]1OC(=O)[C@H](C)[C@@H](O[C@H]2C[C@@](C)(OC)[C@@H](O)[C@H](C)O2)[C@H](C)[C@@H](O[C@@H]2O[C@H](C)C[C@H](N(C)C)[C@H]2O)[C@](C)(O)C[C@@H](C)C(=O)[C@H](C)[C@@H](O)[C@]1(C)O [Erythromycin] | < 0
CN(C)Cc1cccc(N=C(c2ccccc2)c2c(O)[nH]c3cc(C(=O)N(C)C)ccc23)c1 | < 0
COc1ccc(-c2ccc3ncc4c(c3c2)n(-c2ccc(N3CCNCC3)c(C(F)(F)F)c2)c(=O)n4C)cn1 | 94.5
COc1c(OCCCN2CCOCC2)ccc2c1N=C(NC(=O)c1cnc(N)nc1)N1CCN=C21 | 7.06
COc1cc(C(=O)NC2CCN(C)CC2)ccc1Nc1ncc2c(n1)N(C1CCCC1)CCC(=O)N2C(C)C | < 0
CN1CCC(=C2c3ccccc3C=Cc3ccccc32)CC1 [Cyproheptadine hydrochloride] | < 0
CC[C@@]1(O)C(=O)OCc2c1cc1n(c2=O)Cc2cc3cc(O)ccc3nc2-1 [10-hydroxycamptothecin] | 10.9
Nc1nc(-c2nn(Cc3ccccc3F)c3ncccc23)nc(N)c1N1CCOCC1 | < 0
CS(=O)(=O)Nc1ccc([N+](=O)[O-])cc1Oc1ccccc1 [Nimesulide] | < 0
CC(C)[N+]1(C)[C@@H]2CC[C@H]1C[C@@H](OC(=O)C(CO)c1ccccc1)C2 (stereo not given in full) [Ipratropium bromide hydrate] | < 0
CCCCCNC(=N)N/N=C/c1c[nH]c2ccc(OC)cc12 [Tegaserod maleate] | < 0
COc1ccc2c(c1)c(CC(=O)O)c(C)n2C(=O)c1ccc(Cl)cc1 [Indomethacin] | < 0
C[C@H](NC(=O)c1sccc1OCc1ccc(Cl)cc1)c1ccccc1 | < 0
CN(C)CCN1C(=O)c2cccc3cc(N)cc(c23)C1=O [Amonafide] | < 0
CCCn1c(=O)c2nc(C34CC5CC(CC3C5)C4)[nH]c2n(CCC)c1=O [Rolofylline] | < 0
CNC(C)C1CCC(N)C(OC2C(N)CC(N)C(OC3OCC(C)(O)C(NC)C3O)C2O)O1 (stereo not given) [Gentamycin sulfate] | < 0
CCCCCCNC(=O)n1cc(F)c(=O)[nH]c1=O [Carmofur] | < 0

As entered above.
For reduction in cell viability [%], COc1ccc(-c2ccc3ncc4c(c3c2)n(-c2ccc(N3CCNCC3)c(C(F)(F)F)c2)c(=O)n4C)cn1 has the entry 94.5
For reduction in cell viability [%], CCN(C(=O)c1c(O)c2c(Cl)cccc2n(C)c1=O)c1ccccc1 [Laquinimod] has the entry < 0

From the supplement of paper PMC9015667
